In article PMC6547613:
Like-named read-outs stand apart in the source and are kept apart here. No constants are given. Whether binding was seen depends on the method and setting. In cells and extracts the contact can be indirect. Some binding calls cover weakened binding; strength is not graded here. For part of these data: Where a sequence is shown, tags or fusion partners need not be part of it. One block for each molecule: values may come before it.

Sequences of proteins named here, by UniProt entry; tags and fusion partners are left off. A change or cut given only in a name is not applied to a line headed by its entry. A line that says so, or that is headed by a name, gives the form on record, which may keep a tag or linker.
myc-tagged PMLIV (doxycycline-inducible, MDA-MB-231 PMLIV OE cells) (P29590-5, form named): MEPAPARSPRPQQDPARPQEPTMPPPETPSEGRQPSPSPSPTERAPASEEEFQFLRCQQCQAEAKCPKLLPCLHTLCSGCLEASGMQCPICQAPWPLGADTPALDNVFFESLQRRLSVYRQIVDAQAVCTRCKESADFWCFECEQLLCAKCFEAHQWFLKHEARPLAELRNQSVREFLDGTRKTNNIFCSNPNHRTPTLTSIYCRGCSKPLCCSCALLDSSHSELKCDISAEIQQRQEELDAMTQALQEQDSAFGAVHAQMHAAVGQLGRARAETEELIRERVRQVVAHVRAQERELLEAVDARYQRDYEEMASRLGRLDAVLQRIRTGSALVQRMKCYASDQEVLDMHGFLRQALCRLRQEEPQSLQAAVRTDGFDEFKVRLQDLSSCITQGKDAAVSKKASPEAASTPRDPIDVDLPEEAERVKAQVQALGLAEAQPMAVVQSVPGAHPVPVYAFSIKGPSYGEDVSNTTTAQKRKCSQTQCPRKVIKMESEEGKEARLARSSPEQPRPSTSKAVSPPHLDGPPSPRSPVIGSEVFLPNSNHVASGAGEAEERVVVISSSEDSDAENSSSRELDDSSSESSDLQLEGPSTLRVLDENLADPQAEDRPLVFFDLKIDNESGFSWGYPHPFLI
UniProt O43524: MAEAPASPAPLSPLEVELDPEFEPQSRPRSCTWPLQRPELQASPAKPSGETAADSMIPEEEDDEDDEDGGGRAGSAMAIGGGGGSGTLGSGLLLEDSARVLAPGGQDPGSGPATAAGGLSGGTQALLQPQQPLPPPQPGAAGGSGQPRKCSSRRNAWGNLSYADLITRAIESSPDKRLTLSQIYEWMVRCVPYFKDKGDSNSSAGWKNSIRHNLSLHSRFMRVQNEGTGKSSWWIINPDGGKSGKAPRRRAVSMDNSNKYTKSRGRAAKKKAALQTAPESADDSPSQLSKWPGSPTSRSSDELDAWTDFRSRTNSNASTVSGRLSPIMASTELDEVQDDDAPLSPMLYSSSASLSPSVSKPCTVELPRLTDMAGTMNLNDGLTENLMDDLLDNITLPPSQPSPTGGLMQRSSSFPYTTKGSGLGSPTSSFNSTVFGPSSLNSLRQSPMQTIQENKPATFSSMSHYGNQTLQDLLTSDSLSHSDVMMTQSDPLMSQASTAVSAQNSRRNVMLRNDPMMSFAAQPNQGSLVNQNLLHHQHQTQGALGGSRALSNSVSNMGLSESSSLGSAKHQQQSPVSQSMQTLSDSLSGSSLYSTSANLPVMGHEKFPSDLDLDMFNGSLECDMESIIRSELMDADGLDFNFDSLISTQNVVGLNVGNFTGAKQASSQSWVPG

How the values were obtained:
[1] = biological target: T1, GFP-FOXM1 (UniProt Q08050); test: co-IP; lysates (RIPA buffer) of transiently cotransfected HEK293T cells; 200 ug extract with GFP, FOXM1 or PML antibody overnight at 4 °C, protein G beads 3 h, washes in NETN buffer (250 mM NaCl, 0.5% NP-40); immunoblot
T1 sequence: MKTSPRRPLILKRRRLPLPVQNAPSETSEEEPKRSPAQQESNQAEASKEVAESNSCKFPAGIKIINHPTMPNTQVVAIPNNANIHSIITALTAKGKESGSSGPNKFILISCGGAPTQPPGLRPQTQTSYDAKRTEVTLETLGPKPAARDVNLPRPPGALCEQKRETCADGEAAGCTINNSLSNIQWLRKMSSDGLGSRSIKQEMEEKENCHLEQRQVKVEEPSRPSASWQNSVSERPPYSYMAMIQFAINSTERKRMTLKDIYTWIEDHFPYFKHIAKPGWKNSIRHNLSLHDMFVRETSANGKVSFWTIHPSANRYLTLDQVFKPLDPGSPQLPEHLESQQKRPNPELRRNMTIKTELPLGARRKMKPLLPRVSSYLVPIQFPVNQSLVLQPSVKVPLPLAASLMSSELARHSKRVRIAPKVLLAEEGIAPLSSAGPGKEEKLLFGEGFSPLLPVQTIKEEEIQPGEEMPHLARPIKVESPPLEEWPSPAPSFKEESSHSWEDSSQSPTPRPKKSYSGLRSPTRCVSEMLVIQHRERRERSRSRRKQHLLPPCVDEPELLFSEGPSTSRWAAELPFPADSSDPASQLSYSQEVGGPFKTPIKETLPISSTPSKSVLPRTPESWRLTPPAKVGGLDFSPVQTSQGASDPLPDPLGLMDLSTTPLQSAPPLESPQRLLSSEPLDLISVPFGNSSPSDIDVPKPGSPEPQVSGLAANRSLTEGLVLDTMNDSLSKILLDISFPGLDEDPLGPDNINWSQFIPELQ

[2] = biological target: myc-tagged PMLIV (doxycycline-inducible, MDA-MB-231 PMLIV OE cells) (human) (UniProt P29590); test: co-IP; lysates (RIPA buffer) of the MDA-MB-231 PMLIV OE cell line (doxycycline-induced; for FOXO3 also before induction); primary antibody overnight at 4 °C, protein G beads, washes in NETN buffer (250 mM NaCl); immunoblot
[3] = biological target: mRED-PMLIV (human) (UniProt P29590); test: co-IP; lysates (RIPA buffer) of transiently cotransfected HEK293T cells; 200 ug extract with GFP, FOXM1 or PML antibody overnight at 4 °C, protein G beads 3 h, washes in NETN buffer (250 mM NaCl, 0.5% NP-40); immunoblot
[4] = biological target: mRED-PMLIV (human) (UniProt P29590); test: as above; remark: listed apart in the source
[5] = biological target: PMLIII (mRED fusion) (human) (UniProt P29590); test: as above
[6] = biological target: myc-tagged PMLIV (doxycycline-inducible, MDA-MB-231 PMLIV OE cells) (human) (UniProt P29590); test: co-IP; lysates (RIPA buffer) of the MDA-MB-231 PMLIV OE cell line (doxycycline-induced; for FOXO3 also before induction); primary antibody overnight at 4 °C, protein G beads, washes in NETN buffer (250 mM NaCl); immunoblot; remark: listed apart in the source

Molecule: mRED-PMLIV (from UniProt P29590-5 1-633)
binding [1]: binds

Molecule: endogenous FOXO3 (MDA-MB-231) (from UniProt O43524 1-673)
binding [2]: binds

B2: endogenous FOXM1 (MDA-MB-231) (protein, UniProt Q08050 1-763)
chain: MKTSPRRPLILKRRRLPLPVQNAPSETSEEEPKRSPAQQESNQAEASKEVAESNSCKFPAGIKIINHPTMPNTQVVAIPNNANIHSIITALTAKGKESGSSGPNKFILISCGGAPTQPPGLRPQTQTSYDAKRTEVTLETLGPKPAARDVNLPRPPGALCEQKRETCADGEAAGCTINNSLSNIQWLRKMSSDGLGSRSIKQEMEEKENCHLEQRQVKVEEPSRPSASWQNSVSERPPYSYMAMIQFAINSTERKRMTLKDIYTWIEDHFPYFKHIAKPGWKNSIRHNLSLHDMFVRETSANGKVSFWTIHPSANRYLTLDQVFKPLDPGSPQLPEHLESQQKRPNPELRRNMTIKTELPLGARRKMKPLLPRVSSYLVPIQFPVNQSLVLQPSVKVPLPLAASLMSSELARHSKRVRIAPKVLLAEEGIAPLSSAGPGKEEKLLFGEGFSPLLPVQTIKEEEIQPGEEMPHLARPIKVESPPLEEWPSPAPSFKEESSHSWEDSSQSPTPRPKKSYSGLRSPTRCVSEMLVIQHRERRERSRSRRKQHLLPPCVDEPELLFSEGPSTSRWAAELPFPADSSDPASQLSYSQEVGGPFKTPIKETLPISSTPSKSVLPRTPESWRLTPPAKVGGLDFSPVQTSQGASDPLPDPLGLMDLSTTPLQSAPPLESPQRLLSSEPLDLISVPFGNSSPSDIDVPKPGSPEPQVSGLAANRSLTEGLVLDTMNDSLSKILLDISFPGLDEDPLGPDNINWSQFIPELQ
binding [6]: binds

Other lines, results leading:

binding [3]: binds
Molecule: FOXO3 (dsRED monomer fusion) (from UniProt O43524 1-673)

binding [4]: binds
binding [5]: binds weakly
B1: GFP-FOXM1 (protein, UniProt Q08050-1 1-763)
chain: MKTSPRRPLILKRRRLPLPVQNAPSETSEEEPKRSPAQQESNQAEASKEVAESNSCKFPAGIKIINHPTMPNTQVVAIPNNANIHSIITALTAKGKESGSSGPNKFILISCGGAPTQPPGLRPQTQTSYDAKRTEVTLETLGPKPAARDVNLPRPPGALCEQKRETCADGEAAGCTINNSLSNIQWLRKMSSDGLGSRSIKQEMEEKENCHLEQRQVKVEEPSRPSASWQNSVSERPPYSYMAMIQFAINSTERKRMTLKDIYTWIEDHFPYFKHIAKPGWKNSIRHNLSLHDMFVRETSANGKVSFWTIHPSANRYLTLDQVFKPLDPGSPQLPEHLESQQKRPNPELRRNMTIKTELPLGARRKMKPLLPRVSSYLVPIQFPVNQSLVLQPSVKVPLPLAASLMSSELARHSKRVRIAPKVLLAEEGIAPLSSAGPGKEEKLLFGEGFSPLLPVQTIKEEEIQPGEEMPHLARPIKVESPPLEEWPSPAPSFKEESSHSWEDSSQSPTPRPKKSYSGLRSPTRCVSEMLVIQHRERRERSRSRRKQHLLPPCVDEPELLFSEGPSTSRWAAELPFPADSSDPASQLSYSQEVGGPFKTPIKETLPISSTPSKSVLPRTPESWRLTPPAKVGGLDFSPVQTSQGASDPLPDPLGLMDLSTTPLQSAPPLESPQRLLSSEPLDLISVPFGNSSPSDIDVPKPGSPEPQVSGLAANRSLTEGLVLDTMNDSLSKILLDISFPGLDEDPLGPDNINWSQFIPELQ
